Assay results from paper PMC8514949.
These are yes or no findings as the source states them, for the method shown. Binding seen in cells or lysates may run through a third protein. Some binding calls cover weakened binding; strength is not graded here.

The chains behind the UniProt entries cited, without tags or fusion partners. Residues count along the entry.
UniProt Q14126, residues 50-1118: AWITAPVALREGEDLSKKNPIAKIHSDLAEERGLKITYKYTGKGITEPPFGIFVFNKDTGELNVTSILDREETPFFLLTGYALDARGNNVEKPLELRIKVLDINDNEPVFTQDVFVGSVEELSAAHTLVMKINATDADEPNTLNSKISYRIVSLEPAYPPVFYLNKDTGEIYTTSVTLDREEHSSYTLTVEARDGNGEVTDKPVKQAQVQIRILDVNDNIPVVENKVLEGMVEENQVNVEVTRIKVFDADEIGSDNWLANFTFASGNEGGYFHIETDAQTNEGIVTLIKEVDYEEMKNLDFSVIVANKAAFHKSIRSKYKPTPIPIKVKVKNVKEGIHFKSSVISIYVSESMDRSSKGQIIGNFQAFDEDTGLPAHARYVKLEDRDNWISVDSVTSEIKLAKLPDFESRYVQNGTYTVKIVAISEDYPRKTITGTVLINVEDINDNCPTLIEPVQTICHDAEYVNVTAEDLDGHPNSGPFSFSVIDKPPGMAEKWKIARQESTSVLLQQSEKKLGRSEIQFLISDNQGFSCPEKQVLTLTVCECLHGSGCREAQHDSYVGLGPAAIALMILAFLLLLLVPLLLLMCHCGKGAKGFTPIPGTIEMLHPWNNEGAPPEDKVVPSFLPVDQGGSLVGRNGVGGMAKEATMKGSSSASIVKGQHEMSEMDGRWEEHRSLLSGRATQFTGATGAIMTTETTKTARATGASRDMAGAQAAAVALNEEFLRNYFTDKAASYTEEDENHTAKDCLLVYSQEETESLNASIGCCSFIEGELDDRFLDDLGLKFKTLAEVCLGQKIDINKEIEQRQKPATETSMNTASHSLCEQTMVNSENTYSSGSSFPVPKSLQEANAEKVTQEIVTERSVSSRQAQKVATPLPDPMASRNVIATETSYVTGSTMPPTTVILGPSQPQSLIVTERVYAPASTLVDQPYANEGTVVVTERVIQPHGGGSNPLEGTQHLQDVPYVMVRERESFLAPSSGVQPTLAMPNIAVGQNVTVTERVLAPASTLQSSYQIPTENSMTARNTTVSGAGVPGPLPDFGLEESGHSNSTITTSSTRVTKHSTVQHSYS

Molecular target: Desmoglein 2 (human (endogenous in Caco2)) (UniProt Q14126)
Experiment: proximity ligation; confluent Caco2^WT cells on coverslips, basal conditions or TNFα for 24h; primary antibodies mouse anti-Dsg2 with rabbit anti-PI-3-kinase, or mouse anti-Plakoglobin with rabbit anti-Dsg2; PLUS and MINUS probes; controls without primary antibodies and Caco2 Dsg2^-/- cells

binding: binds
B1: Plakoglobin (protein, UniProt P14923 1-745)
chain: MEVMNLMEQPIKVTEWQQTYTYDSGIHSGANTCVPSVSSKGIMEEDEACGRQYTLKKTTTYTQGVPPSQGDLEYQMSTTARAKRVREAMCPGVSGEDSSLLLATQVEGQATNLQRLAEPSQLLKSAIVHLINYQDDAELATRALPELTKLLNDEDPVVVTKAAMIVNQLSKKEASRRALMGSPQLVAAVVRTMQNTSDLDTARCTTSILHNLSHHREGLLAIFKSGGIPALVRMLSSPVESVLFYAITTLHNLLLYQEGAKMAVRLADGLQKMVPLLNKNNPKFLAITTDCLQLLAYGNQESKLIILANGGPQALVQIMRNYSYEKLLWTTSRVLKVLSVCPSNKPAIVEAGGMQALGKHLTSNSPRLVQNCLWTLRNLSDVATKQEGLESVLKILVNQLSVDDVNVLTCATGTLSNLTCNNSKNKTLVTQNSGVEALIHAILRAGDKDDITEPAVCALRHLTSRHPEAEMAQNSVRLNYGIPAIVKLLNQPNQWPLVKATIGLIRNLALCPANHAPLQEAAVIPRLVQLLVKAHQDAQRHVAAGTQQPYTDGVRMEEIVEGCTGALHILARDPMNRMEIFRLNTIPLFVQLLYSSVENIQRVAAGVLCELAQDKEAADAIDAEGASAPLMELLHSRNEGTATYAAAVLFRISEDKNPDYRKRVSVELTNSLFKHDPAAWEAAQSMIPINEPYGDDMDATYRPMYSSDVPLDPLEMHMDMDGDYPIDTYSDGLRPPYPTADHMLA
